The supplement of paper PMC10849652
This is one part of the list.

Protein sequences, listed by entry. Tags and fused reporters are not part of them. Lines headed by an entry give the natural chain unless they say otherwise; changes in a name come on top.
UniProt P29762, whole entry, looked up: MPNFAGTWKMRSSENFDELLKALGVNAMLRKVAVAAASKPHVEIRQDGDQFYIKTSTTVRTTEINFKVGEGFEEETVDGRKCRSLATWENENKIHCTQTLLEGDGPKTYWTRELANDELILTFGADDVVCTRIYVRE
UniProt Q53ET0: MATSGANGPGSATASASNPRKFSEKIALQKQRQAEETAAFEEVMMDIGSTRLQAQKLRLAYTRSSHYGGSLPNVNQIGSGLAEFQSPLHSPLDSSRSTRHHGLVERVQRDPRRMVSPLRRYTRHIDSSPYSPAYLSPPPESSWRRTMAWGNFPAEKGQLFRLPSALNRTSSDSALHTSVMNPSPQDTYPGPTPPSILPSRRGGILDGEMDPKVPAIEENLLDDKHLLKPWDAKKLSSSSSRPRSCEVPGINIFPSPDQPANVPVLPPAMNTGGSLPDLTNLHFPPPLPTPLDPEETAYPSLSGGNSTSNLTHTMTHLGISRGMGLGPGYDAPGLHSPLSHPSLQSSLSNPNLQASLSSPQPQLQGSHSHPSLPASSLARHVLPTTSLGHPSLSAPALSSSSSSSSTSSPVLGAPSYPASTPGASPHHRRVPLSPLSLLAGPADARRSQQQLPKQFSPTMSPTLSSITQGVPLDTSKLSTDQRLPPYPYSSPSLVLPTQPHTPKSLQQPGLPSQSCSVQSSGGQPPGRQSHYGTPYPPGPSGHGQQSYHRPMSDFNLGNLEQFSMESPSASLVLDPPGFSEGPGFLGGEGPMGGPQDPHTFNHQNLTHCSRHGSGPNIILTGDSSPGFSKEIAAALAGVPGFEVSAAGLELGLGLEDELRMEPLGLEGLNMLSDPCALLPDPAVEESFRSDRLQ
UniProt Q96I36: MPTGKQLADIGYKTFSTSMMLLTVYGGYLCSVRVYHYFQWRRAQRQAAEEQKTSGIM
UniProt Q49AN0: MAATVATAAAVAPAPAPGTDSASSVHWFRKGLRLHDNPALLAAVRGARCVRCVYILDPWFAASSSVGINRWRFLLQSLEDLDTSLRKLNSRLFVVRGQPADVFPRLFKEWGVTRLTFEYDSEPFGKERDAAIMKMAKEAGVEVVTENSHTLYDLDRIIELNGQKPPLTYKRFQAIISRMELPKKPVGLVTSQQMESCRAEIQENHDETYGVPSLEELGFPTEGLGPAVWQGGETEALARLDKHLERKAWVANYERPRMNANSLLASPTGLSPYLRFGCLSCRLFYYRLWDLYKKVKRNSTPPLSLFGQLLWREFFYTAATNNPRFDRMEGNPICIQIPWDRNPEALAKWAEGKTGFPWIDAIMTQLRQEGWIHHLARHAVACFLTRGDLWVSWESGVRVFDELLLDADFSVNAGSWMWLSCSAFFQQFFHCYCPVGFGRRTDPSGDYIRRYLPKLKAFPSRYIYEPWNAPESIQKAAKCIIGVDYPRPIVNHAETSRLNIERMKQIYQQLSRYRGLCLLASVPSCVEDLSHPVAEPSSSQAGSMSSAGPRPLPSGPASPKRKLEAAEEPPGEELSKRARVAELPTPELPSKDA
UniProt P02511: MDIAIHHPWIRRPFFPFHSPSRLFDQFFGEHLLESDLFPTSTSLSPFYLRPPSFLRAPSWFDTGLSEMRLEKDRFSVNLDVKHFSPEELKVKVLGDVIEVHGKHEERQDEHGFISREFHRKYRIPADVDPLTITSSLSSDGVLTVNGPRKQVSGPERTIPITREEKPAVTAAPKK
UniProt Q8NHY2, whole entry, looked up: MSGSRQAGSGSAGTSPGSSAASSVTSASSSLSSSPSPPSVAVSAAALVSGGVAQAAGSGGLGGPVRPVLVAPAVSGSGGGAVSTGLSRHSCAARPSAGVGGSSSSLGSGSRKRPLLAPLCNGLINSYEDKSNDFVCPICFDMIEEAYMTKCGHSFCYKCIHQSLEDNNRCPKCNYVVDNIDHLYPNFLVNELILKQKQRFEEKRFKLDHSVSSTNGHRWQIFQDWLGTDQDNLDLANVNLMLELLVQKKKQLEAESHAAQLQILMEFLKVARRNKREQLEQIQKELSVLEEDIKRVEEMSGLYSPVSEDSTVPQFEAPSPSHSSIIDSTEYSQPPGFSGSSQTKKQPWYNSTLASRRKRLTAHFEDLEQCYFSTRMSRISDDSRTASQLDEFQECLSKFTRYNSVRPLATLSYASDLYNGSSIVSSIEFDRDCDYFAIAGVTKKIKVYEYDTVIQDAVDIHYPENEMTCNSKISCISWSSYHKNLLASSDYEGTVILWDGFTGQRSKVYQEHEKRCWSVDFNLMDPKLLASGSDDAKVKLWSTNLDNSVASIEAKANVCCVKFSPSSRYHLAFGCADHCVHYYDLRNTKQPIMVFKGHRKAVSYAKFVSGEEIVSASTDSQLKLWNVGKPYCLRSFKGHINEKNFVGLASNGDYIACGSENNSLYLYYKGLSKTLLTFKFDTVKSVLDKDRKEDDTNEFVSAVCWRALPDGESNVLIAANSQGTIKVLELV
UniProt Q9UI42: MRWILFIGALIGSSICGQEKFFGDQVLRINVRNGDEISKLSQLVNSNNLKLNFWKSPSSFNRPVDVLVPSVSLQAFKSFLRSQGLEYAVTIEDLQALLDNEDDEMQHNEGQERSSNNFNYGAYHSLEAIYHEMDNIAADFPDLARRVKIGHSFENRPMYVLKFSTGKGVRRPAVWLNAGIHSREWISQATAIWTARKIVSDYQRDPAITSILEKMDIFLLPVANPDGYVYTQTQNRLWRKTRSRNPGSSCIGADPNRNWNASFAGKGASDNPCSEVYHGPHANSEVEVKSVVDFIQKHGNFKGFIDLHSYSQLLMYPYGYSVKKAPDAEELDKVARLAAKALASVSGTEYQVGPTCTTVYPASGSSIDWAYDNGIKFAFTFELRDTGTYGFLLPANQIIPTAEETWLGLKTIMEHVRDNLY
UniProt Q14894: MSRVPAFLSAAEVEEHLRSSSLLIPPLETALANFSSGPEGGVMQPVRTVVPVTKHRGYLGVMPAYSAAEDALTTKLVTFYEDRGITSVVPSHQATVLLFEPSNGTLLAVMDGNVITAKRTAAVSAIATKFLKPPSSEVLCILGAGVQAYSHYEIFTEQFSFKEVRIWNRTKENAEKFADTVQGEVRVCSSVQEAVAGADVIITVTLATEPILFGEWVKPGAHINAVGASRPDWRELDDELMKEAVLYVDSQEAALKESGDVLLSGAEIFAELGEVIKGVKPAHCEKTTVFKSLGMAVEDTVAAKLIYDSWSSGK
UniProt Q8N668, whole entry, looked up: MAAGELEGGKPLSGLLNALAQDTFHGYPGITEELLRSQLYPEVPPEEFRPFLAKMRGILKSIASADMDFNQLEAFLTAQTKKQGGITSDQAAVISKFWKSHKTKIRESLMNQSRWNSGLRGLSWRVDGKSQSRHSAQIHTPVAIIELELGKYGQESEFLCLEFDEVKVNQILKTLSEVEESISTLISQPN
UniProt P78560: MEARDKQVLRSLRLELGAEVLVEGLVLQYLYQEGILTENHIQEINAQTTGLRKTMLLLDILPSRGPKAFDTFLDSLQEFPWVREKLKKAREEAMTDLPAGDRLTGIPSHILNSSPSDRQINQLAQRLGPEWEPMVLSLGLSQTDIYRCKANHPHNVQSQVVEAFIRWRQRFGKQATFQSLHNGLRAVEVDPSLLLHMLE
UniProt P19784, whole entry, looked up: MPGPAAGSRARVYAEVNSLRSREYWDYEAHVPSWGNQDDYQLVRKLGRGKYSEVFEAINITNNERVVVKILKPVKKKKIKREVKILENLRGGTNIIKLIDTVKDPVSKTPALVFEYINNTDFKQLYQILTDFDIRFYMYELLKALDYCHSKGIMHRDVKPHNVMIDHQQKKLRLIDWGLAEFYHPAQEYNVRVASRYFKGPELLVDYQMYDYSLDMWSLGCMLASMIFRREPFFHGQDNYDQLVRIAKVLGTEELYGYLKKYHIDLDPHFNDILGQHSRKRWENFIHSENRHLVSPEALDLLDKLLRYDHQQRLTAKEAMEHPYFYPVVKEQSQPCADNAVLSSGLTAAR
UniProt O75575: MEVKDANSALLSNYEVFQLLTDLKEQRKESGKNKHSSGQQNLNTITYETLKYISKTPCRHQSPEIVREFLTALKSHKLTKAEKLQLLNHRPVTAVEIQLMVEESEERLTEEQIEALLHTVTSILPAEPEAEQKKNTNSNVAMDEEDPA
UniProt Q8N6G5: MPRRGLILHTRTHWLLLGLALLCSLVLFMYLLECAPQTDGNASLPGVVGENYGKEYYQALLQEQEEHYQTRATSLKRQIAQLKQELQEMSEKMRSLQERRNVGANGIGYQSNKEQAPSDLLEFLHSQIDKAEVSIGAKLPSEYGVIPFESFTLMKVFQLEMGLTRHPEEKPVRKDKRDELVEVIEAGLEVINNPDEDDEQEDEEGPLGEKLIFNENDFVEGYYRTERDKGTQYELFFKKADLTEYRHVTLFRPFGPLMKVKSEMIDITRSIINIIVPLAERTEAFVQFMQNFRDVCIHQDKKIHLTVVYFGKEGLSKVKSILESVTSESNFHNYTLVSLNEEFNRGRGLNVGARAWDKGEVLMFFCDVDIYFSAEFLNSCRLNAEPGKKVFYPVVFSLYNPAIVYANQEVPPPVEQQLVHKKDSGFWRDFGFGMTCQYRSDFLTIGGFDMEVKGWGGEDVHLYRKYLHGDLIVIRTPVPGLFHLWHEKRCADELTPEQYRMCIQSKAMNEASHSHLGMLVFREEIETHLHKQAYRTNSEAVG
UniProt Q9NX08, whole entry, looked up: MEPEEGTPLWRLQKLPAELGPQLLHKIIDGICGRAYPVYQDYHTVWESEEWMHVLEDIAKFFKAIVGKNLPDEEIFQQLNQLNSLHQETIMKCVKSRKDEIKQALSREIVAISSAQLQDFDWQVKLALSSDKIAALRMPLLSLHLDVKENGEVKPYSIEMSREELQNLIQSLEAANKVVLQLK
UniProt Q9BWP8: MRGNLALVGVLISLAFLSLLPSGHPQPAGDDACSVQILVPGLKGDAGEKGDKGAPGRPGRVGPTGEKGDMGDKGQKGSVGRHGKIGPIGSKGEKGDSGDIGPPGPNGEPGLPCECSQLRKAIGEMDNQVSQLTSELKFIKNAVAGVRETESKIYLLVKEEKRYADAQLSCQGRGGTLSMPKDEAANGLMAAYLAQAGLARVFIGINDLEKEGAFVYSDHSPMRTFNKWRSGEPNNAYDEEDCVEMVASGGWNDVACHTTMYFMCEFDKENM
UniProt P02461, whole entry, looked up: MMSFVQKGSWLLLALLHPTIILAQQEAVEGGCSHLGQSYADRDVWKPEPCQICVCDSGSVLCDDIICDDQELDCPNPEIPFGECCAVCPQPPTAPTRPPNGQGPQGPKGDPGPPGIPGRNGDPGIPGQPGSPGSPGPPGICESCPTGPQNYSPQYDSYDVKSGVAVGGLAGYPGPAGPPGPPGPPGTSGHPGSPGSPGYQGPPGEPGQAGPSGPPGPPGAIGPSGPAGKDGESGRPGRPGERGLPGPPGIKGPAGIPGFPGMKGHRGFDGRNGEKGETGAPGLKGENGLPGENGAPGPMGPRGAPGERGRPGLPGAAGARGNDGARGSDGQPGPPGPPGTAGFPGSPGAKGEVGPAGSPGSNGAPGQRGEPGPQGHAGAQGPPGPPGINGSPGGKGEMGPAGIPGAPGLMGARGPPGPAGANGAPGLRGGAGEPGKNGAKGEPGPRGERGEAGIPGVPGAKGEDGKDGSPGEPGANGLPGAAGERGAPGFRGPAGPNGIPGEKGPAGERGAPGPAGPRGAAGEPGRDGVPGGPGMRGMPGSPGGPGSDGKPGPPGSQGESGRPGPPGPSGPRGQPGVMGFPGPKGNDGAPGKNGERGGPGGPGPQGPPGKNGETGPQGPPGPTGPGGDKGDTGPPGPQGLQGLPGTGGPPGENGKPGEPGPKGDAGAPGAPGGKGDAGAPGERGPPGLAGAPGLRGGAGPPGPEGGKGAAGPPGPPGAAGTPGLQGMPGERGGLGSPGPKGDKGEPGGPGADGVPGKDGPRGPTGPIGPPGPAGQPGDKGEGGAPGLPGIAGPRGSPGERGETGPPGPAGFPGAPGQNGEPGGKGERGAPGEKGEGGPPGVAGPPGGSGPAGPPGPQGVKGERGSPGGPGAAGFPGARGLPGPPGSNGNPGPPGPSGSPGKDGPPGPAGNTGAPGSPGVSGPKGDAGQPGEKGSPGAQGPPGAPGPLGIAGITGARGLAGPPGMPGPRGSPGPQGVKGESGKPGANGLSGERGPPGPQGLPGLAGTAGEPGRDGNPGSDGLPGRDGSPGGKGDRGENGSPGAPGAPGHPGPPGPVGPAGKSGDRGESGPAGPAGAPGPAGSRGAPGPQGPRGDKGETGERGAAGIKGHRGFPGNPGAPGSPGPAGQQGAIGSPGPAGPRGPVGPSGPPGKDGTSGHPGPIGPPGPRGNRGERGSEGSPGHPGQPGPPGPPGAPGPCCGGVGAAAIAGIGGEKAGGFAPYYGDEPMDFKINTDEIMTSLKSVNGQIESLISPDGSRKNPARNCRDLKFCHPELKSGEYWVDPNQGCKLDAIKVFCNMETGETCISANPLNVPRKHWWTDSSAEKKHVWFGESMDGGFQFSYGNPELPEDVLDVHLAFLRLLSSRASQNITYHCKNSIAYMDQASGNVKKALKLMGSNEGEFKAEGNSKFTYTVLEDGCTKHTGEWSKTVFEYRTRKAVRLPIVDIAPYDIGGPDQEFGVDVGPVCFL
UniProt P15954, whole entry, looked up: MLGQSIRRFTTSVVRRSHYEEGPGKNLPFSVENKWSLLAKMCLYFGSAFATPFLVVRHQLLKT
UniProt Q14061: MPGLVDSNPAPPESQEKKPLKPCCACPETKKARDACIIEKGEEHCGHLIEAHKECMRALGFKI

What was measured:
Experiment in all cases: log2 fold change, soluble protein after heating vs DMSO (PISA); higher = thermal stabilisation; K562 cells, 10 uM, 30 min; active = over 0.2 and 3.5 SD of the protein, either way, in both replicates (recomputed)
[1] = compound: C1=CC=C(C=C1)[C@H](COC2=CC3=C(C=C2)NC(=O)N3)NC(=O)C4=CC=CN(C4=O)CC5=CC(=C(C=C5)F)F
Summary of the method: (§1)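 Quantification of soluble protein used TMTpro 16plex LC-MS/MS, with channel sums equalised. Samples were the supernatant after 21,000xg for 90 min of pooled aliquots from K562 cells (2×10^6 cells/mL) treated with 10 μM compound for 30 min, heated for 3 min over 48°C-58°C, and extracted in PBS with 0.5% NP-40 at 4°C. Values, from duplicates, describe thermal stability against control samples on a log2 fold-change scale.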

[2] = compound: CC1=C(SC2=C1C(=N[C@H](C3=NN=C(N32)C)CC(=O)N)C4=CC=C(C=C4)Cl)C
Summary of the method: as §1

[3] = compound: CC1=C2C(=CC=C1)N=C(N(C2=O)C3=CC=CC=C3C)CN4C=NC5=C(N=CN=C54)N
Summary of the method: as §1

[4] = compound: Cc1sc2c(c1C)C(c1ccc(Cl)cc1)=N[C@@H](CC(=O)OC(C)(C)C)c1nnc(C)n1-2
Summary of the method: as §1

[5] = compound: c1ccc([C@@H]2C[C@H]2NC2CCNCC2)cc1
Summary of the method: as §1

Measured: log2 fold change

CRIP2 isoform 2 (UniProt P52943)
inactive: [1] 0.061 | [2] -0.22 | [3] 0.034 | [4] 0.069 | [5] 0.03

CRLS1 (UniProt Q9UJA2)
inactive: [2] -0.005 | [3] -0.034 | [4] -0.01 | [5] 0.003

CRABP1 (UniProt P29762)
inactive: [3] -0.672

CRTC2 (UniProt Q53ET0)
inactive: [1] 0.006 | [3] -0.075 | [4] 0.052

COX14 (UniProt Q96I36)
inactive: [1] 0.065 | [2] 0.025 | [5] -0.049

CRY2 (UniProt Q49AN0)
inactive: [1] -0.034 | [3] 0.122 | [4] -0.052

COMMD3-BMI1 (UniProt R4GMX3)
inactive: [2] -0.114 | [4] 0.002 | [5] 0.154

CRYAB (UniProt P02511)
inactive: [2] -0.148 | [3] 0.221 | [5] -0.016

CRPPA (UniProt A4D126)
inactive: [1] -0.002 | [2] 0.076 | [3] 0.028 | [4] -0.041 | [5] 0.02

COP1 (UniProt Q8NHY2)
inactive: [2] -0.069 | [5] -0.102

COQ10B (UniProt Q9H8M1)
inactive: [1] -0.023 | [2] 0.078 | [5] -0.006

CPA4 (UniProt Q9UI42)
inactive: [3] -0.501 | [4] -0.081

CRYM (UniProt Q14894)
inactive: [2] 0.082 | [4] -0.33 | [5] 0.084

CRY1 (UniProt Q16526)
inactive: [3] 0.228

COMMD1 (UniProt Q8N668)
inactive: [1] 0.099 | [3] 0.007 | [4] 0.162

Quoted from the entries so far (7 entries):
CRPPA (UniProt A4D126)
inactive: [1] -0.002 | [2] 0.076 | [3] 0.028 | [4] -0.041 | [5] 0.02

COP1 (UniProt Q8NHY2)
inactive: [2] -0.069 | [5] -0.102

COQ10B (UniProt Q9H8M1)
inactive: [1] -0.023 | [2] 0.078 | [5] -0.006

CPA4 (UniProt Q9UI42)
inactive: [3] -0.501 | [4] -0.081

CRYM (UniProt Q14894)
inactive: [2] 0.082 | [4] -0.33 | [5] 0.084

CRY1 (UniProt Q16526)
inactive: [3] 0.228

COMMD1 (UniProt Q8N668)
inactive: [1] 0.099 | [3] 0.007 | [4] 0.162

Carrying on:

CRADD (UniProt P78560)
inactive: [2] 0.022 | [3] 0.248 | [4] -0.092 | [5] 0.193

CSNK2A2 (UniProt P19784)
inactive: [1] -0.025 | [2] 0.08 | [3] 0.052 | [4] 0.028 | [5] 0.012

CORO6 isoform 5 (UniProt Q6QEF8)
inactive: [3] 0.192 | [4] 0.03

COMMD6 isoform 2 (UniProt Q7Z4G1)
inactive: [3] 0.093

CRCP (UniProt O75575)
inactive: [1] 0.1 | [2] 0.025 | [4] -0.032 | [5] -0.071

CSGALNACT2 (UniProt Q8N6G5)
inactive: [1] 0.035 | [2] 0.049 | [5] 0.068

COL2A1 (UniProt P02458)
inactive: [2] -0.249 | [3] 0.193 | [4] -0.049 | [5] 0.079

COMMD8 (UniProt Q9NX08)
inactive: [1] 0.018 | [2] 0.068 | [4] -0.139 | [5] -0.059

COLEC11 isoform 10 (UniProt Q9BWP8)
inactive: [1] 0.024 | [2] 0.011 | [3] 0.007 | [5] -0.035

CSNK1G2 (UniProt P78368)
inactive: [4] -0.013

COL3A1 (UniProt P02461)
inactive: [2] 0.077 | [3] -0.341 | [4] 0.05 | [5] 0.121

CRTC1 isoform 2 (UniProt Q6UUV9)
inactive: [1] -0.036 | [3] 0.018 | [4] 0.046

COX7C (UniProt P15954)
inactive: [1] -0.023 | [3] -0.073 | [4] -0.079

COX17 (UniProt Q14061)
inactive: [2] 0.12 | [3] 0.022 | [4] -0.073 | [5] -0.085

CPN1 (UniProt P15169)
inactive: [1] -0.12 | [3] 0.095 | [4] -0.178
